Results are given in words; binding and its absence hold for the method and conditions named. Binding seen in cells or lysates may run through a third protein. These calls come from enrichment with a bait or labelling near it, and not all partners need be listed.

By UniProt entry, the sequences of proteins in these tests, tags left out.
UniProt Q01827: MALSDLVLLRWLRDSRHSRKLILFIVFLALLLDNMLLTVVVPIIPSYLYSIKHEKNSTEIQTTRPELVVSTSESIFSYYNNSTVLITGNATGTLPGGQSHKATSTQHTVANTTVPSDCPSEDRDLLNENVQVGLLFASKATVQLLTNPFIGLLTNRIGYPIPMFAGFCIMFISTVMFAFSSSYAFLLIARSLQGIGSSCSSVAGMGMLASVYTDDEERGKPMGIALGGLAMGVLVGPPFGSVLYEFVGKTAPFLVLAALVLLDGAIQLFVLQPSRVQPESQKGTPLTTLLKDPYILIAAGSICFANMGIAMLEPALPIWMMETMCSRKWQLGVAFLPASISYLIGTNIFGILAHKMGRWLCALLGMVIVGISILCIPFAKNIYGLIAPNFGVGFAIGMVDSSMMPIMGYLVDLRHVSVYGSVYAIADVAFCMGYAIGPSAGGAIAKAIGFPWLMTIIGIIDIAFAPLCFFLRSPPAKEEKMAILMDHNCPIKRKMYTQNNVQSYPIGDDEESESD
UniProt Q6MG11: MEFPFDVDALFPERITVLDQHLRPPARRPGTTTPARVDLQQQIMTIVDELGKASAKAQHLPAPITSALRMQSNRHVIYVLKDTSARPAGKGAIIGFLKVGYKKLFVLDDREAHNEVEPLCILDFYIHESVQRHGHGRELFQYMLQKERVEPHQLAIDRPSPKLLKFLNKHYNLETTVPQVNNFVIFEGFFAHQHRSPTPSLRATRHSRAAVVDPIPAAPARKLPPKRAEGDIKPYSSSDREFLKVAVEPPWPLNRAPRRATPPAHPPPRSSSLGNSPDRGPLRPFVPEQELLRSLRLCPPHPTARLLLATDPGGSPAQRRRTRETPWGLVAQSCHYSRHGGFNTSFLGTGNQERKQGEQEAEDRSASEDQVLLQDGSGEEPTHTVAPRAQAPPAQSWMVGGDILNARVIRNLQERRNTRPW
UniProt Q3B8Q0: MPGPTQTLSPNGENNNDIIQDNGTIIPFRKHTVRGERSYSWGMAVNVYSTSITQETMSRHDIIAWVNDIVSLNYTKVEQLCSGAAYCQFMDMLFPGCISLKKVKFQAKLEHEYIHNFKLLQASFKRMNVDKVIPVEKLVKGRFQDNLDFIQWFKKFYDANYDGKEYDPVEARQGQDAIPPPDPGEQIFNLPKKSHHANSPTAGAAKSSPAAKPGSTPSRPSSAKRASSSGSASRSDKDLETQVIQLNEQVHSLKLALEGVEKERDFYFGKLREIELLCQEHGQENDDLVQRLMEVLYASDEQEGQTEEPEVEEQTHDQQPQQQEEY
UniProt Q9Z0W5: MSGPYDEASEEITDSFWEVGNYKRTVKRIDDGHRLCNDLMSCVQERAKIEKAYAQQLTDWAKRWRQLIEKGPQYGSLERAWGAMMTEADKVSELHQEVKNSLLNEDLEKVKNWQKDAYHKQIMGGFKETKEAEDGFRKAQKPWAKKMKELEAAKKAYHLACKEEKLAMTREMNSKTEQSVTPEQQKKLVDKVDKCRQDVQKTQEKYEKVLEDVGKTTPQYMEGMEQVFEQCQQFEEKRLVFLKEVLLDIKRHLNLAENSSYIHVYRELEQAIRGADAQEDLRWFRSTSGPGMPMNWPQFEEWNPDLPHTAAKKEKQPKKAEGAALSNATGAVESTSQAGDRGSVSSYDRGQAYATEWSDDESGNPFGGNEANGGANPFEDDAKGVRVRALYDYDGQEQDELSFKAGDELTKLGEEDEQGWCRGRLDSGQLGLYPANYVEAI
UniProt Q62910: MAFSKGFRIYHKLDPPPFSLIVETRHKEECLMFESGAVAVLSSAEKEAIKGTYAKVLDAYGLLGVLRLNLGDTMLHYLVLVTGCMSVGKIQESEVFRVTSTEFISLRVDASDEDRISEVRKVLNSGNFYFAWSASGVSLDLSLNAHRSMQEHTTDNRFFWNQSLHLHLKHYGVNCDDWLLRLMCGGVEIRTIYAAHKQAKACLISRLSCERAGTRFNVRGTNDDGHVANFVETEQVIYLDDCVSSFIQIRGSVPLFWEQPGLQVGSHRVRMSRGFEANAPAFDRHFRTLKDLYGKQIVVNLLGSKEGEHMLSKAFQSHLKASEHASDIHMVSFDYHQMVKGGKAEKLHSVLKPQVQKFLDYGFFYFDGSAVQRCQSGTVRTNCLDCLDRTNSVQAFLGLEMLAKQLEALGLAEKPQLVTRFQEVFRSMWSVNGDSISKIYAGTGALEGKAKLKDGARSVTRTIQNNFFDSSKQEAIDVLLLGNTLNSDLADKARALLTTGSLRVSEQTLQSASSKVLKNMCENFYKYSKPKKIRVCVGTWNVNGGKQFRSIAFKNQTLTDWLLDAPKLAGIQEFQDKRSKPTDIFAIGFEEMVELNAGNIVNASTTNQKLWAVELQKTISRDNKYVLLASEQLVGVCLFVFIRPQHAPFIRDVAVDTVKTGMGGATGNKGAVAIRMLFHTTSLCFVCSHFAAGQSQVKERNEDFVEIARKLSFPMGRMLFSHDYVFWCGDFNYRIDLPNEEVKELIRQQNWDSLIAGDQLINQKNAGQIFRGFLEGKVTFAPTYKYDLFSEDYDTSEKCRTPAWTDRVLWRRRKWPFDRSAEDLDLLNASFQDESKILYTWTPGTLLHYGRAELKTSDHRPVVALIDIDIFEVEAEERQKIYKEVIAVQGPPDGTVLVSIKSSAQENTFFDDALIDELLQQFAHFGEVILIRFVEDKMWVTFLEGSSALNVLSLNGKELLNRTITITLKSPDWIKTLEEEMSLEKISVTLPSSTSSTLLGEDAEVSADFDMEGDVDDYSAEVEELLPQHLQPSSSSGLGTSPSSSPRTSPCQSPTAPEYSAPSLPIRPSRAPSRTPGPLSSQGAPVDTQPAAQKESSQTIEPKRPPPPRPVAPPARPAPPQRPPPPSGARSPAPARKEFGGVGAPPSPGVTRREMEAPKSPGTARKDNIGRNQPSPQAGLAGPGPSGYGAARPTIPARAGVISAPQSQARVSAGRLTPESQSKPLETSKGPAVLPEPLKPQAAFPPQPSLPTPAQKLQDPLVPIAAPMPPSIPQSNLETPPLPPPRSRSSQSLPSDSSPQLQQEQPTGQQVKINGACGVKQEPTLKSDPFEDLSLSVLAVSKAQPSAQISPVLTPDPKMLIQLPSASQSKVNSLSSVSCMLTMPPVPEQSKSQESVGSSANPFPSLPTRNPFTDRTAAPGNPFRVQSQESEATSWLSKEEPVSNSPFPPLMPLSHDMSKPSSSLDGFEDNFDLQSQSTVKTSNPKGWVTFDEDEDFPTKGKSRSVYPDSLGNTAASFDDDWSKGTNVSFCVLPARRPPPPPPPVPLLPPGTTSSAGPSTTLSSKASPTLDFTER
UniProt O08835: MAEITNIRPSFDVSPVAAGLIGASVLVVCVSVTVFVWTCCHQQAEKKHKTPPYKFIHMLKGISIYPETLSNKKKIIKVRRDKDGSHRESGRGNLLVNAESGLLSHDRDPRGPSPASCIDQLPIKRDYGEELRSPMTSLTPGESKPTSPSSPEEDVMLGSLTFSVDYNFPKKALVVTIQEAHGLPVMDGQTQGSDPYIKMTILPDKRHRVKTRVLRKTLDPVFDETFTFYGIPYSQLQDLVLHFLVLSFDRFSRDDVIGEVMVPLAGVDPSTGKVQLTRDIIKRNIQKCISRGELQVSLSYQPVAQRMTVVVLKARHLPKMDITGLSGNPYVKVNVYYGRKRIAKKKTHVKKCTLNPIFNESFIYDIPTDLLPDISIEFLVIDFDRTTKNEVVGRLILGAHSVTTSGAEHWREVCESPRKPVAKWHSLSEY

The target in this test is vesicular monoamine transporter-2 (VMAT2) (rat (endogenous in Sprague Dawley rat striatum)) (UniProt Q01827). Briefly: affinity purification with mass spectrometry; Dynabeads with anti-VMAT2 antibody, membrane/endosomal fraction of striatal synaptosomes of saline- and METH-treated rats killed 1 h after treatment (n = 4); SDS-PAGE, in-gel trypsin digest, LC-MS/MS (Q Exactive).
For “Alpha-tubulin N-acetyltransferase 1 (from UniProt Q6MG11 1-421)”, the binding entry is reported as “binds”.
Next, “Microtubule-associated protein RP/EB family member 2 (from UniProt Q3B8Q0 1-326)”: “binds”.
Regarding “Protein kinase C and casein kinase substrate in neurons protein 1 (from UniProt Q9Z0W5 1-441)”, the binding entry was “binds”.
Next, “synaptojanin-1 (from UniProt Q62910 1-1574)”: “binds”; “synaptotagmin 11 (from UniProt O08835 1-430)”: “binds”.
